In paper PMC1976419:
These are yes or no findings as the source states them, for the method shown. In cells and extracts the contact can be indirect. Some binding calls cover weakened binding; strength is not graded here. For part of these data: Where a sequence is shown, tags or fusion partners need not be part of it.

Sequences of proteins named here, by UniProt entry; tags and fusion partners are left off.
UniProt Q03330: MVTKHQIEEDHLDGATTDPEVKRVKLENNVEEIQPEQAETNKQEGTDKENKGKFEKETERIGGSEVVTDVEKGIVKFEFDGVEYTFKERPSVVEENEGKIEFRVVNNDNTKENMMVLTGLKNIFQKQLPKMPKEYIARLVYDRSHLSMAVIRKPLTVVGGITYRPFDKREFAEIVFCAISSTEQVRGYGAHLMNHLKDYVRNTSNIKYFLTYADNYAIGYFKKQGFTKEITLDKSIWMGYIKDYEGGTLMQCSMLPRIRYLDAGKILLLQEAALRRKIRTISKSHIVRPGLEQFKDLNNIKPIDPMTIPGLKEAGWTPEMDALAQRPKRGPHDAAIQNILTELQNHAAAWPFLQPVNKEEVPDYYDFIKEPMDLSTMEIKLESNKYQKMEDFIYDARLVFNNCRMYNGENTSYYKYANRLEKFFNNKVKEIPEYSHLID
UniProt P35177: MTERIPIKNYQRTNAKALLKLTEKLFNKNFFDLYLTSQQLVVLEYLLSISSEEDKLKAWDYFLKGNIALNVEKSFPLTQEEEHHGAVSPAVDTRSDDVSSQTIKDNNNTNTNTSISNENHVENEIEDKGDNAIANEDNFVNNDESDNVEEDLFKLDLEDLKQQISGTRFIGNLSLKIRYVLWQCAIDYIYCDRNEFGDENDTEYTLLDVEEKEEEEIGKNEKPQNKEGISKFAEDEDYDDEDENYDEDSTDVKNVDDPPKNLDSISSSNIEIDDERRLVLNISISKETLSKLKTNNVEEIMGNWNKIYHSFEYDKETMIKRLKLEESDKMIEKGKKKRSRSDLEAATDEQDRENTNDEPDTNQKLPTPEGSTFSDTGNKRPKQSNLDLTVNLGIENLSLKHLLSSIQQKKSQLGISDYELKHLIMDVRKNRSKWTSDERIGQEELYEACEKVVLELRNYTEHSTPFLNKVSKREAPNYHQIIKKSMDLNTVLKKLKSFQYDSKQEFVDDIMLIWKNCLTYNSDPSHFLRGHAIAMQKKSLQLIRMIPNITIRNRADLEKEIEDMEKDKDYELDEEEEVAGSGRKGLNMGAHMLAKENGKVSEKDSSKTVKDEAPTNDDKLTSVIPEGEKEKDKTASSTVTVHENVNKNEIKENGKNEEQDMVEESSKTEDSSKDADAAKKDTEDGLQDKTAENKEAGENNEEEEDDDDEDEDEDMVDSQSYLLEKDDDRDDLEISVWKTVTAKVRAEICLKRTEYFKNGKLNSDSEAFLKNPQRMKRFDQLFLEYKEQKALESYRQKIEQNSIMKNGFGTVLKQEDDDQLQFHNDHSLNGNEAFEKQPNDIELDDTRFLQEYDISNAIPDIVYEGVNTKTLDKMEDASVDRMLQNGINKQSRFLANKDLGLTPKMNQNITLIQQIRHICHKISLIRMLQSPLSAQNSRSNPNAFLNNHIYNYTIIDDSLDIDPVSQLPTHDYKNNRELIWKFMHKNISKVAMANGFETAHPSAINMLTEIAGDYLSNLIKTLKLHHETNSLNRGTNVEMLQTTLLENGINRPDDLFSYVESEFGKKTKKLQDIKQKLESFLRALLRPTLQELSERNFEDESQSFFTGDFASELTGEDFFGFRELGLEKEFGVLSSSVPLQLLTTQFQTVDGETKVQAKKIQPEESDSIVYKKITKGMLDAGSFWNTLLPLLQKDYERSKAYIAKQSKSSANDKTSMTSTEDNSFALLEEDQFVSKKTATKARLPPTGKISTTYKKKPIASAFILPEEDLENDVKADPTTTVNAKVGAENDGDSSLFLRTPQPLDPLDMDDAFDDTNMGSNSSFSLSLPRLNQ

What was measured:
Test in all cases: co-IP; 25 mg crude lysate of yeast strains with a C-terminally TAP-tagged SAGA component and Flag-Spt7, purified on IgG agarose; bound protein separated by 5% SDS-PAGE, Flag-Spt7 forms detected with anti-Flag antibody
[1] = target: T1, C-terminally TAP-tagged Ubp8 (S. cerevisiae) (UniProt P50102)
T1 sequence: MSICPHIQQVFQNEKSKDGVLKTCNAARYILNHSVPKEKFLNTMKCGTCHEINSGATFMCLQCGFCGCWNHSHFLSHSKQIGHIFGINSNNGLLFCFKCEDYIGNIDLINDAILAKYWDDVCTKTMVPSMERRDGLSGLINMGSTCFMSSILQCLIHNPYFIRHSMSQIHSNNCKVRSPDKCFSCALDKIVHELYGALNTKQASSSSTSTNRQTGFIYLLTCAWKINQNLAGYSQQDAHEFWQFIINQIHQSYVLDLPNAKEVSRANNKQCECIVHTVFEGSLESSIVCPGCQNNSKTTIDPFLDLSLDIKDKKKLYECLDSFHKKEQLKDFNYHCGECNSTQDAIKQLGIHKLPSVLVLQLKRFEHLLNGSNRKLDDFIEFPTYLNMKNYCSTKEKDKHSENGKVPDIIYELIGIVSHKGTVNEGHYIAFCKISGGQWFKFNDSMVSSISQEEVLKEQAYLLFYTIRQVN

[2] = target: T2, C-terminally TAP-tagged Spt3 (S. cerevisiae) (UniProt P06844)
T2 sequence: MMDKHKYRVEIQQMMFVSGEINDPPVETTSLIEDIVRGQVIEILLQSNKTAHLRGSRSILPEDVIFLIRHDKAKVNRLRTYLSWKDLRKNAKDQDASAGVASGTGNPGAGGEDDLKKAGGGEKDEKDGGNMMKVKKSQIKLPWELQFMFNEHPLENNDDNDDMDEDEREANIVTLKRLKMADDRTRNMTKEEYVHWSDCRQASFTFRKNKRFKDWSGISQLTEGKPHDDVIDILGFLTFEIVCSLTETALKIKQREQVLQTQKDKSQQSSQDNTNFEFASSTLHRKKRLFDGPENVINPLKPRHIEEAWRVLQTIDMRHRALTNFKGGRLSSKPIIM

[3] = target: T3, C-terminally TAP-tagged Taf5 (S. cerevisiae) (UniProt P38129)
T3 sequence: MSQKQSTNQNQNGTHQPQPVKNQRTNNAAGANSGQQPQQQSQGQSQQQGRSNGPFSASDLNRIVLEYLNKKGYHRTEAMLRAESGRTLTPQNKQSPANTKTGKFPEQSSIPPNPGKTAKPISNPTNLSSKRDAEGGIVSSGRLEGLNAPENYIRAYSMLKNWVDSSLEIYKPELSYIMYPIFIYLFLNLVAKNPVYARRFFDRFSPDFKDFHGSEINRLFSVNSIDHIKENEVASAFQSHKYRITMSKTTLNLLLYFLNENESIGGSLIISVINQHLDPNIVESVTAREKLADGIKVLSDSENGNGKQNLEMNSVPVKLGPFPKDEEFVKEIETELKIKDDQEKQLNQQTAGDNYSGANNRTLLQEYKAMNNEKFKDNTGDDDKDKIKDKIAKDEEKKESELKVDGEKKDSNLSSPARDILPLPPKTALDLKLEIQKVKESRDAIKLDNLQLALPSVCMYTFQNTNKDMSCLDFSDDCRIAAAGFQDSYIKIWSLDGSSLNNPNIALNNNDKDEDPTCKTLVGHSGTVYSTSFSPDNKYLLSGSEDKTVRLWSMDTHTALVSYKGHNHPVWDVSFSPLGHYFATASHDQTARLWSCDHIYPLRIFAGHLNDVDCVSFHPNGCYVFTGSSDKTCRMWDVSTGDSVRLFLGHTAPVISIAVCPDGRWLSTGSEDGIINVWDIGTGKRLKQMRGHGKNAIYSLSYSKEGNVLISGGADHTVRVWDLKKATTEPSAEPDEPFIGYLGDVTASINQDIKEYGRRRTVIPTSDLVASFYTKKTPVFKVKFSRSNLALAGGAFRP

[4] = target: T4, C-terminally TAP-tagged Ada2 (S. cerevisiae) (UniProt Q02336)
T4 sequence: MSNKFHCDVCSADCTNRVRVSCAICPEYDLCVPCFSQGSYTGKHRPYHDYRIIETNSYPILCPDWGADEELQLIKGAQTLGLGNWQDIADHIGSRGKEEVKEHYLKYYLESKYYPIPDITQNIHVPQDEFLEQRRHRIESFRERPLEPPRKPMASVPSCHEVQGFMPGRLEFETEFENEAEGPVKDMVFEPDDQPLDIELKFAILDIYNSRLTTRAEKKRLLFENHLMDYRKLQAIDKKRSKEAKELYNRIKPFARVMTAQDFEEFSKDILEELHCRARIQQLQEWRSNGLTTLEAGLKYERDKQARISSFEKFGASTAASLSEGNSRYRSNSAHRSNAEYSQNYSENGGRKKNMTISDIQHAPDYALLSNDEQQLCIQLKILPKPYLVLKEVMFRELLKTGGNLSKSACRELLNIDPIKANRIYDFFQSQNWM

[5] = target: T5, C-terminally TAP-tagged Spt8 (S. cerevisiae) (UniProt P38915)
T5 sequence: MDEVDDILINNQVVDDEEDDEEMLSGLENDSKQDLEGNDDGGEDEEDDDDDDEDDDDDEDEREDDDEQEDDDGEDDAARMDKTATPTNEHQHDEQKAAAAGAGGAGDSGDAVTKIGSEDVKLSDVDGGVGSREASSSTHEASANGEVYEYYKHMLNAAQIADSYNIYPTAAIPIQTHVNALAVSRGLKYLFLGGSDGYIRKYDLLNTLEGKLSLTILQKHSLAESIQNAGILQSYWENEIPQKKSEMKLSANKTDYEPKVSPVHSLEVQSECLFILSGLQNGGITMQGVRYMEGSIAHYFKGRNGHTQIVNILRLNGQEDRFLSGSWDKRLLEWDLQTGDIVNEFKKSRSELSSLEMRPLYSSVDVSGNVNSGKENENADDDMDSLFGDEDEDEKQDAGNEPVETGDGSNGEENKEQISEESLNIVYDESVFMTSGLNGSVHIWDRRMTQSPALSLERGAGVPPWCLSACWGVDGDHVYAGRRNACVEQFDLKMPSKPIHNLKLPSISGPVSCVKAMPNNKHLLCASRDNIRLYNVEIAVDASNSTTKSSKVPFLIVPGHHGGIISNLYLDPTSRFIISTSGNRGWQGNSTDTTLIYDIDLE

[6] = target: C-terminally TAP-tagged Gcn5 (S. cerevisiae) (UniProt Q03330)

Measured: binding

Flag-Spt7, full-length SAGA form (Spt7SAGA) (from UniProt P35177 1-1332)
binds: all assays above
